Data source: PubChem BioAssay AID1259308 (NCATS, 2017)
Assay: 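Candidate targets for better recombinant protein yield in mammalian cells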 (primary screen). System: human HEK293 embryonic kidney cells stably expressing firefly luciferase (HEK-CMV-Luc2-Hygro). Reagent: single siRNA against human genes, 0.8 pmol siRNA per well. Time to read-out: 72 h. Detection: 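Reporter luminescence and viable-cell signal on separate replicate plates, given as percent of non-targeting control and median/MAD z-scores, plus per-cell luciferase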. Reading the numbers: total luciferase, z-score and total luciferase, % of control: higher = more reporter protein produced; luciferase per cell, z-score: higher = more reporter output per viable cell; viable cells, % of control: higher = more viable cells. Hit rule: 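An siRNA counts as active if its total luciferase robust z-score exceeds 3; genes with two or more such siRNAs out of three were retested with fresh siRNAs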. Calls: active = raised luciferase; inactive = no rise.
The whole screen tested about 59,000 reagents; shown is a part drawn at random. About 1,510 of all reagents (2.6%) count as active. 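Calls use total luciferase alone and ignore viability, so some active siRNAs may act by altering cell number.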 Entries without a mark were called inactive. Reagents against one gene are numbered here.

Target gene	reagent no.	total luciferase, z-score	total luciferase, % of control	luciferase per cell, z-score	viable cells, % of control
MNS1	1	-0.367	74.6	-0.268	89.4
MNS1	2	0.84	98.6	0.211	104
MNS1	3	-0.473	72.5	-0.0451	82
HNRNPCP2	1	1.04	103	1.09	86.1
HNRNPCP2	2	3.08 (active)	143	3.35	66.1
HNRNPCP2	3	0.462	91.1	0.00703	102
ENTPD5	1	0.726	96.3	0.472	95.1
ENTPD5	2	1.28	107	1.27	85.9
ENTPD5	3	1	102	1.49	76.8
SPN	1	0.227	86.4	0.0639	94.9
SPN	2	-1.73	47.5	-2.03	90.5
SPN	3	-1.97	42.6	-1.76	75.6
AVPI1	1	0.689	95.6	-0.062	109
AVPI1	2	0.12	84.3	-0.337	103
AVPI1	3	1.48	111	0.897	98.2
GTF3C2	1	-1.32	55.7	-1.41	90.2
GTF3C2	2	-0.201	77.9	-0.653	103
GTF3C2	3	-0.954	62.9	-0.239	74.9
CAMK2D	1	0.519	92.2	0.0855	101
CAMK2D	2	0.0349	82.6	-0.605	108
CAMK2D	3	0.597	93.8	1.01	80.4
SH3PXD2A	1	0.384	89.5	0.00285	100
SH3PXD2A	2	-0.542	71.1	0.236	74.7
SH3PXD2A	3	0.537	92.6	0.405	93
INTS12	1	1.74	116	1.07	98.1
INTS12	2	-1.97	42.7	-1.9	78.6
INTS12	3	1.55	113	0.918	98.9
SPMIP10	1	1.52	112	3.69	47.5
SPMIP10	2	-1.57	50.8	-2.01	96.4
SPMIP10	3	-1.29	56.3	0.087	61.5
POLDIP2	1	-1.67	48.6	-1.23	75.1
POLDIP2	2	0.653	94.9	0.49	93.2
POLDIP2	3	-0.62	69.6	-0.145	80.8
POSTN	1	1.19	106	2.1	67.8
POSTN	2	0.487	91.6	0.0705	100
POSTN	3	-0.0311	81.3	1.1	67.9
SLC66A1	1	0.75	96.8	0.497	94.9
SLC66A1	2	2.79	137	2.1	88.2
SLC66A1	3	-0.126	79.4	-0.883	112
EPHB4	1	1.1	104	0.694	96.6
EPHB4	2	-0.75	67	-0.585	87.3
EPHB4	3	-0.812	65.7	-1.02	96.1
PRAMEF14	1	0.299	87.8	0.732	80.9
PRAMEF14	2	0.797	97.7	0.658	91.8
PRAMEF14	3	2.4	130	1.69	92.9
GALK2	1	-0.415	73.6	0.198	78.1
GALK2	2	0.262	87.1	-0.502	111
GALK2	3	-0.0181	81.5	-0.422	102
TBKBP1	1	-1.05	61	-0.666	81.3
TBKBP1	2	0.299	87.8	-0.023	98.7
TBKBP1	3	-0.54	71.1	-0.543	91.7
PRSS48	1	-1.45	53	-1.56	89.3
PRSS48	2	0.354	88.9	0.65	83.7
PRSS48	3	0.287	87.6	-0.0821	100
PMS1	1	-0.533	71.3	-1.62	122
PMS1	2	-1.01	61.8	-0.877	86.9
PMS1	3	0.831	98.4	0.583	94.3

Entries above whose gene name starts with I or i:
Target gene	reagent no.	total luciferase, z-score	total luciferase, % of control	luciferase per cell, z-score	viable cells, % of control
INTS12	1	1.74	116	1.07	98.1
INTS12	2	-1.97	42.7	-1.9	78.6
INTS12	3	1.55	113	0.918	98.9
